Assay results reported in paper PMC5047949, “Kinetic analysis of the translocator protein positron emission tomography ligand [^18F]GE-180 in the human brain” (European Journal of Nuclear Medicine and Molecular Imaging, 2016).

System: translocator protein (TSPO)
Test: Dynamic [^18F]GE-180 brain PET with arterial input; 1TC, 2TC and Logan kinetic modelling
Assay type: in vivo, human
Protocol: PET studies were performed on a Biograph 6 (six-slice CT) scanner after administration of 182 ± 3.1 MBq via intravenous bolus injection over 10 s followed by a 10-mL saline flush. A low-dose CT scan preceded the PET acquisition to allow correction for tissue attenuation. Emission data were then acquired over 90 min in list mode and reconstructed as 24 temporal frames (6 × 15, 3 × 60, 5 × 120, 5 × 300, 5 × 600 s) using filtered back-projection (matrix size 168 × 168, zoom 2.6, 5-mm gaussian filter, pixel size 1.56 × 1.56, slice thickness 3 mm) with and without attenuation correction. Standard corrections for scatter, decay and random counts were applied.
We used the PET data analysis and kinetic modelling toolkit, MIAKAT™ (www.miakat.org), which incorporates software from SPM5 (Wellcome Trust Centre for Neuroimaging) and FSL (FMRIB, University of Oxford). The brain was initially extracted from the T1-weighted MR images. The CIC neuroanatomical atlas was nonlinearly registered to the individual’s extracted brain in order to generate a personalized set of anatomically parcellated regions. […]
Datasets were analysed with a one-tissue compartment (1TC) model and a two-tissue compartment (2TC) model and the Logan graphical method, using the metabolite-corrected plasma input function as previously described with a fixed 5 % blood volume correction. […]

Structure (SMILES): CCN(CC)C(=O)[C@H]1CCCc2c1c1c(OC)cccc1n2CC[18F] [[^18F]GE-180]
- time stability of VT (2TC model, 40 to 90 min windows in 10-min increments): increasing VT for each successive time window
- difference in VT between HABs and MABs (across all ROIs): no significant differences
